Results from publication PMC3589453, “Structural Characterization of the Self-Association of the Death Domain of p75^NTR” (PLoS ONE, 2013).
These are yes or no findings as the source states them, for the method shown. Some results given as binding are weak or reduced against the parent protein; the word gives no strength. Values belong to the molecule of their own block, whether it stands above or below them.

What was measured:
[1] = target: full-length rat p75NTR C257A with N-terminal HA tag (rat) (UniProt P07174); experiment: immunoprecipitation and non-reducing SDS-PAGE immunoblot; HA-p75NTR in transfected HEK 293T cells without ligand; lysate in 40 mM Tris pH 7.6, 150 mM NaCl, 0.5% NP-40, 10% glycerol; anti-HA immunoprecipitates boiled with or without DTT, blotted with anti-HA
[2] = target: full-length rat p75NTR C257A/C379S with N-terminal HA tag (rat) (UniProt P07174); experiment: as above
[3] = target: full-length rat p75NTR C379S with N-terminal HA tag (rat) (UniProt P07174); experiment: as above
[4] = target: p75CTD monomer (p75CTD C379S/C416S) (rat) (UniProt P07174); experiment: SEC; purified p75NTR constructs and their mutants on a Superdex 75 column; monomer and dimer peaks; some runs with beta-ME or DTNB; both purified

Molecule: full-length rat p75NTR C257A with N-terminal HA tag (from UniProt P07174 30-425) (receptor)
binding [1]: binds

B1: p75CTD monomer (p75CTD C379S/C416S) (domain or fragment, UniProt P07174 334-425)
chain: GNLYSSLPLTKREEVEKLLNGDTWRHLAGELGYQPEHIDSFTHEASPVRALLASWGAQDSATLDALLAALRRIQRADIVESLSSESTATSPV
modifications: biotinylated for the BLI assay
binding [4]: no binding

The next lines start with the values.

binding [2]: binds weakly
Molecule: full-length rat p75NTR C257A/C379S with N-terminal HA tag (from UniProt P07174 30-425) (receptor)

binding [3]: binds
Molecule: full-length rat p75NTR C379S with N-terminal HA tag (from UniProt P07174 30-425) (receptor)
